Results: KR20210154940A
No constants are given. Whether binding was seen depends on the method and setting. Some entries that bind do so weakly or less than the wild type.

The chains behind the UniProt entries cited, without tags or fusion partners. Where a name states a change or a piece, a line headed by the entry shows the natural chain unless it says otherwise.
UniProt P13688: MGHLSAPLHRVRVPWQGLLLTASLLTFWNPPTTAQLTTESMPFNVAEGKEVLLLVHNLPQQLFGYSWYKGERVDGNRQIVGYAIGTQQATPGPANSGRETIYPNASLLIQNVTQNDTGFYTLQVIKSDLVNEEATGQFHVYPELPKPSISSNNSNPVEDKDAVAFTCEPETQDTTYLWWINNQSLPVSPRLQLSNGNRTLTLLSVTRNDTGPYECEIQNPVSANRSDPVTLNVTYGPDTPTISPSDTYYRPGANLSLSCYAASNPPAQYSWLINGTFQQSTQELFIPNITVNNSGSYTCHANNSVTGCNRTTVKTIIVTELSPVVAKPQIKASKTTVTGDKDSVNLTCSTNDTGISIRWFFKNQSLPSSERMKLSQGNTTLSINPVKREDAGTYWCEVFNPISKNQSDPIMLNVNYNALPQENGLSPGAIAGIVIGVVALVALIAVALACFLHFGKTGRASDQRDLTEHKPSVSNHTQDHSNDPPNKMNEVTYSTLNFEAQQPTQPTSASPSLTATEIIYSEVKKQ

Molecular target: hCEACAM1-Fc (human CEACAM1 extracellular domain Gln35-Gly428 fused to human IgG4 Fc) (human) (UniProt P13688)
Test: ELISA; hCEACAM1-Fc coated at 2.5 ㎍/㎖, biotin-hCEACAM1-Fc titrated from 150 ㎍/㎖

binding: binds
Substance: hCEACAM1-Fc (human CEACAM1 extracellular domain Gln35-Gly428 fused to human IgG4 Fc) (from UniProt P13688 35-428) (Fc fusion)
